PubChem BioAssay AID1259254, NCATS – 2017
The whole screen tested about 59,000 reagents; below is a part drawn at random. Of all reagents, about 1,550 (2.6%) are marked active. 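G2 share is only a proxy for re-replication; each gene was hit by three separate siRNAs, and active genes were retested.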 Entries without a mark were called inactive. Reagents against one gene are numbered here. Not all columns of the deposit are shown. Not given: the amount of reagent.

- Test: 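Finding genes that stop cells copying their DNA twice in one cycle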 (primary screen)
- Cells: human HCT116 colorectal cancer cells
- Reagents: single siRNA against human genes
- Duration: 3 days
- Read-out: 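Nuclei stained with Hoechst and imaged; cell-cycle phase assigned by DNA content; G2 share scaled per plate, non-targeting siRNA 0%, GMNN siRNA 100%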
- Direction: G2 robust z-score and G2 cells, % of GMNN control: higher = more G2 cells, more excess DNA replication
- Active means: 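Active siRNAs have a G2 robust z of 5 or more median absolute deviations over the median, which in these data means about 38% or higher of GMNN control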

GRB10 (growth factor receptor bound protein 10) #1 → G2 robust z-score: -0.873; G2 cells, % of GMNN control: -3.17
GRB10 (growth factor receptor bound protein 10) #2 → G2 robust z-score: -0.166; G2 cells, % of GMNN control: 1.8
GRB10 (growth factor receptor bound protein 10) #3 → G2 robust z-score: 4.07; G2 cells, % of GMNN control: 31.6
CTF1 (cardiotrophin 1) #1 → G2 robust z-score: 0.469; G2 cells, % of GMNN control: 6.26
CTF1 (cardiotrophin 1) #2 → G2 robust z-score: -0.00265; G2 cells, % of GMNN control: 2.95
CTF1 (cardiotrophin 1) #3 → G2 robust z-score: 1.7; G2 cells, % of GMNN control: 14.9
PGGT1B (protein geranylgeranyltransferase type I subunit beta) #1 → G2 robust z-score: 0.957; G2 cells, % of GMNN control: 9.7
PGGT1B (protein geranylgeranyltransferase type I subunit beta) #2 → G2 robust z-score: -0.143; G2 cells, % of GMNN control: 1.96
PGGT1B (protein geranylgeranyltransferase type I subunit beta) #3 → G2 robust z-score: -0.639; G2 cells, % of GMNN control: -1.53
AADAC (arylacetamide deacetylase) #1 → G2 robust z-score: -0.382; G2 cells, % of GMNN control: 0.277
AADAC (arylacetamide deacetylase) #2 → G2 robust z-score: 0.738; G2 cells, % of GMNN control: 8.16
AADAC (arylacetamide deacetylase) #3 → G2 robust z-score: 0.922; G2 cells, % of GMNN control: 9.45
RIC1 (RIC1 partner of RAB6A GEF complex) #1 → G2 robust z-score: 0.0199; G2 cells, % of GMNN control: 3.11
RIC1 (RIC1 partner of RAB6A GEF complex) #2 → G2 robust z-score: -0.856; G2 cells, % of GMNN control: -3.05
RIC1 (RIC1 partner of RAB6A GEF complex) #3 → G2 robust z-score: -0.261; G2 cells, % of GMNN control: 1.13

Continued, starting with the last 2 of the part before.
RIC1 (RIC1 partner of RAB6A GEF complex) #2 → G2 robust z-score: -0.856; G2 cells, % of GMNN control: -3.05
RIC1 (RIC1 partner of RAB6A GEF complex) #3 → G2 robust z-score: -0.261; G2 cells, % of GMNN control: 1.13
NACA (nascent polypeptide associated complex subunit alpha) #1 → G2 robust z-score: 1.88; G2 cells, % of GMNN control: 16.2
NACA (nascent polypeptide associated complex subunit alpha) #2 → G2 robust z-score: 0.572; G2 cells, % of GMNN control: 6.99
NACA (nascent polypeptide associated complex subunit alpha) #3 → G2 robust z-score: 1.61; G2 cells, % of GMNN control: 14.3
JAG2 (jagged canonical Notch ligand 2) #1 → G2 robust z-score: 1.14; G2 cells, % of GMNN control: 11
JAG2 (jagged canonical Notch ligand 2) #2 → G2 robust z-score: 0.726; G2 cells, % of GMNN control: 8.08
JAG2 (jagged canonical Notch ligand 2) #3 → G2 robust z-score: 1.21; G2 cells, % of GMNN control: 11.5
DFFB (DNA fragmentation factor subunit beta) #1 → G2 robust z-score: -0.368; G2 cells, % of GMNN control: 0.376
DFFB (DNA fragmentation factor subunit beta) #2 → G2 robust z-score: 0.00365; G2 cells, % of GMNN control: 2.99
DFFB (DNA fragmentation factor subunit beta) #3 → G2 robust z-score: 2.19; G2 cells, % of GMNN control: 18.4
UBE2G1 (ubiquitin conjugating enzyme E2 G1) #1 → G2 robust z-score: -1.11; G2 cells, % of GMNN control: -4.81
UBE2G1 (ubiquitin conjugating enzyme E2 G1) #2 → G2 robust z-score: 1.36; G2 cells, % of GMNN control: 12.5
UBE2G1 (ubiquitin conjugating enzyme E2 G1) #3 → G2 robust z-score: -0.567; G2 cells, % of GMNN control: -1.02
CREBBP (CREB binding lysine acetyltransferase) #1 → G2 robust z-score: -1.01; G2 cells, % of GMNN control: -4.15
CREBBP (CREB binding lysine acetyltransferase) #2 → G2 robust z-score: 1; G2 cells, % of GMNN control: 10
CREBBP (CREB binding lysine acetyltransferase) #3 → G2 robust z-score: -0.684; G2 cells, % of GMNN control: -1.84
